From the supplement of paper PMC8728848
The other results are listed elsewhere or left out.

Assays:
Test in all cases: glycan array binding signal (z-score within array); higher = stronger binding
Conditions in all cases: glycan notation: IUPAC condensed, linker removed
Fuc(a1-2)Gal6S(b1-4)Glc = target: Fuc(a1-2)Gal6S(b1-4)Glc
How it was run: (§1)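 The binding signal is a Z-score computed within each array. Data were drawn from 3228 arrays in the Consortium for Functional Glycomics database, restricted to those with a known protein sequence. Scores were averaged over arrays of the same protein sequence at different concentrations or buffers, and over linkers, and negative values can be taken as non-binding.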

[1] = target: Fuc(a1-2)Gal6S(b1-4)Glc6S
How it was run: as §1

[2] = target: Fuc(a1-2)Gal6S(b1-4)GlcNAc
How it was run: as §1

Fuc(a1-2)[Gal(a1-3)]Gal = target: Fuc(a1-2)[Gal(a1-3)]Gal
How it was run: as §1

[3] = target: Fuc(a1-2)[Gal(a1-3)]Gal(b1-3)GlcNAc
How it was run: as §1

[4] = target: Fuc(a1-2)[Gal(a1-3)]Gal(b1-3)GlcNAc(b1-2)Man(a1-3)[Fuc(a1-2)[Gal(a1-3)]Gal(b1-3)GlcNAc(b1-2)Man(a1-6)]Man(b1-4)GlcNAc(b1-4)GlcNAc
How it was run: as §1

[5] = target: Fuc(a1-2)[Gal(a1-3)]Gal(b1-4)Glc
How it was run: as §1

[6] = target: Fuc(a1-2)[Gal(a1-3)]Gal(b1-4)GlcNAc
How it was run: as §1

[7] = target: Fuc(a1-2)[Gal(a1-3)]Gal(b1-4)GlcNAc(b1-2)Man(a1-3)[Fuc(a1-2)[Gal(a1-3)]Gal(b1-4)GlcNAc(b1-2)Man(a1-6)]Man(b1-4)GlcNAc(b1-4)GlcNAc
How it was run: as §1

[8] = target: Fuc(a1-2)[Gal(a1-3)]Gal(b1-4)[Fuc(a1-3)]GlcNAc
How it was run: as §1

[9] = target: Fuc(a1-2)[Gal(a1-4)]Gal(b1-4)GlcNAc
How it was run: as §1

[10] = target: Fuc(a1-2)[GalNAc(a1-3)]Gal
How it was run: as §1

[11] = target: Fuc(a1-2)[GalNAc(a1-3)]Gal(b1-3)GlcNAc
How it was run: as §1

[12] = target: Fuc(a1-2)[GalNAc(a1-3)]Gal(b1-3)GlcNAc(b1-2)Man(a1-3)[Fuc(a1-2)[GalNAc(a1-3)]Gal(b1-3)GlcNAc(b1-2)Man(a1-6)]Man(b1-4)GlcNAc(b1-4)GlcNAc
How it was run: as §1

[13] = target: Fuc(a1-2)[GalNAc(a1-3)]Gal(b1-4)Glc
How it was run: as §1

[14] = target: Fuc(a1-2)[GalNAc(a1-3)]Gal(b1-4)GlcNAc
How it was run: as §1

[15] = target: Fuc(a1-2)[GalNAc(a1-3)]Gal(b1-4)GlcNAc(b1-2)Man(a1-3)[GalNAc(a1-3)[Fuc(a1-2)]Gal(b1-4)GlcNAc(b1-2)Man(a1-6)]Man(b1-4)GlcNAc(b1-4)GlcNAc
How it was run: as §1

[16] = target: Fuc(a1-2)[GalNAc(a1-3)]Gal(b1-4)GlcNAc(b1-3)Gal(b1-4)GlcNAc
How it was run: as §1

[17] = target: Fuc(a1-2)[GalNAc(a1-3)]Gal(b1-4)GlcNAc(b1-3)Gal(b1-4)GlcNAc(b1-3)Gal(b1-4)GlcNAc
How it was run: as §1

[18] = target: Fuc(a1-2)[GalNAc(a1-3)]Gal(b1-4)[Fuc(a1-3)]GlcNAc
How it was run: as §1

[19] = target: Fuc(a1-2)[GalNAc(a1-4)]Gal(b1-4)GlcNAc
How it was run: as §1

[20] = target: Fuc(a1-2)[GalNAc(b1-3)]Gal
How it was run: as §1

Fuc(a1-3)GlcNAc = target: Fuc(a1-3)GlcNAc
How it was run: as §1

B1: HHL-2 (Homo sapiens), P07307 (protein)
chain: MAKDFQDIQQLSSEENDHPFHQGEGPGTRRLNPRRGNPFLKGPPPAQPLAQRLCSMVCFSLLALSFNILLLVVICVTGSQSEGHRGAQLQAELRSLKEAFSNFSSSTLTEVQAISTHGGSVGDKITSLGAKLEKQQQDLKADHDALLFHLKHFPVDLRFVACQMELLHSNGSQRTCCPVNWVEHQGSCYWFSHSGKAWAEAEKYCQLENAHLVVINSWEEQKFIVQHTNPFNTWIGLTDSDGSWKWVDGTDYRHNYKNWAVTQPDNWHGHELGGSEDCVEVQPDGRWNDDFCLQVYRWVCEKRRNATGEVA
Fuc(a1-2)Gal6S(b1-4)Glc
  glycan array binding signal (z-score): 0.709
[1]
  glycan array binding signal (z-score): -0.824
[2]
  glycan array binding signal (z-score): 0.464
Fuc(a1-2)[Gal(a1-3)]Gal
  glycan array binding signal (z-score): -0.174
[3]
  glycan array binding signal (z-score): -0.587
[4]
  glycan array binding signal (z-score): -0.019
[5]
  glycan array binding signal (z-score): -0.529
[6]
  glycan array binding signal (z-score): -0.743
[7]
  glycan array binding signal (z-score): -0.605
[8]
  glycan array binding signal (z-score): -0.086
[9]
  glycan array binding signal (z-score): -0.728
[10]
  glycan array binding signal (z-score): -0.571
[11]
  glycan array binding signal (z-score): -0.07
[12]
  glycan array binding signal (z-score): -0.339
[13]
  glycan array binding signal (z-score): -0.657
[14]
  glycan array binding signal (z-score): -0.68
[15]
  glycan array binding signal (z-score): -0.298
[16]
  glycan array binding signal (z-score): -0.24
[17]
  glycan array binding signal (z-score): 0.423
[18]
  glycan array binding signal (z-score): -0.236
[19]
  glycan array binding signal (z-score): 0.84
[20]
  glycan array binding signal (z-score): 0.113
Fuc(a1-3)GlcNAc
  glycan array binding signal (z-score): -0.026
